Measurements reported in publication PMC3303835.
No constants are given. Whether binding was seen depends on the method and setting. In cells and extracts the contact can be indirect. Some entries that bind do so weakly or less than the wild type. Sequences can lack the tags named with a protein.

Target: T1, GFP-EB1 (tyrosinated EB1 with GFP at the N-terminus) (mouse) (UniProt Q61166)
T1 sequence: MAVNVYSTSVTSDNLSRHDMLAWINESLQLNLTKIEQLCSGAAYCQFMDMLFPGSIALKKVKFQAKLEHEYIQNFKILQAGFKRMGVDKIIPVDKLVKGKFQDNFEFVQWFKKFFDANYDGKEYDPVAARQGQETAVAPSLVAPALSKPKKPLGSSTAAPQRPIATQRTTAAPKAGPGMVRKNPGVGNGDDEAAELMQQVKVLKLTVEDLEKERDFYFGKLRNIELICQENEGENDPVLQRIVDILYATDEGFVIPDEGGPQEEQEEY
Assay: co-IP; NIH3T3 lysate 48 h after transfection; mouse anti-GFP on protein G beads, 90 min at 4°C, 50 mM Tris pH 8.0, 150 mM NaCl, 0.04% deoxycholate, 0.8% Triton X-100, 8% glycerol; blot with anti-Tyr EB1

binding: binds
B1: endogenous EB1 (protein, UniProt Q61166 1-268)
chain: MAVNVYSTSVTSDNLSRHDMLAWINESLQLNLTKIEQLCSGAAYCQFMDMLFPGSIALKKVKFQAKLEHEYIQNFKILQAGFKRMGVDKIIPVDKLVKGKFQDNFEFVQWFKKFFDANYDGKEYDPVAARQGQETAVAPSLVAPALSKPKKPLGSSTAAPQRPIATQRTTAAPKAGPGMVRKNPGVGNGDDEAAELMQQVKVLKLTVEDLEKERDFYFGKLRNIELICQENEGENDPVLQRIVDILYATDEGFVIPDEGGPQEEQEEY
